No constants are given. Whether binding was seen depends on the method and setting. In cells and extracts the contact can be indirect. Some binding calls cover weakened binding; strength is not graded here.
Target: LANA stably expressed in U2OS cells (Kaposi's sarcoma herpesvirus (KSHV)) (UniProt Q9QR71)
Experiment: co-IP; whole cell extracts of U2OS stably expressing LANA, transfected with Myc-v-cyclin or empty vector (48 hours), with or without eGFP-NPM constructs; immunoprecipitation with anti-LANA or anti-NPM, immunoblotting with anti-NPM, anti-GFP, anti-LANA

Protein sequences, listed by entry. Tags and fused reporters are not part of them.
UniProt Q9QR71: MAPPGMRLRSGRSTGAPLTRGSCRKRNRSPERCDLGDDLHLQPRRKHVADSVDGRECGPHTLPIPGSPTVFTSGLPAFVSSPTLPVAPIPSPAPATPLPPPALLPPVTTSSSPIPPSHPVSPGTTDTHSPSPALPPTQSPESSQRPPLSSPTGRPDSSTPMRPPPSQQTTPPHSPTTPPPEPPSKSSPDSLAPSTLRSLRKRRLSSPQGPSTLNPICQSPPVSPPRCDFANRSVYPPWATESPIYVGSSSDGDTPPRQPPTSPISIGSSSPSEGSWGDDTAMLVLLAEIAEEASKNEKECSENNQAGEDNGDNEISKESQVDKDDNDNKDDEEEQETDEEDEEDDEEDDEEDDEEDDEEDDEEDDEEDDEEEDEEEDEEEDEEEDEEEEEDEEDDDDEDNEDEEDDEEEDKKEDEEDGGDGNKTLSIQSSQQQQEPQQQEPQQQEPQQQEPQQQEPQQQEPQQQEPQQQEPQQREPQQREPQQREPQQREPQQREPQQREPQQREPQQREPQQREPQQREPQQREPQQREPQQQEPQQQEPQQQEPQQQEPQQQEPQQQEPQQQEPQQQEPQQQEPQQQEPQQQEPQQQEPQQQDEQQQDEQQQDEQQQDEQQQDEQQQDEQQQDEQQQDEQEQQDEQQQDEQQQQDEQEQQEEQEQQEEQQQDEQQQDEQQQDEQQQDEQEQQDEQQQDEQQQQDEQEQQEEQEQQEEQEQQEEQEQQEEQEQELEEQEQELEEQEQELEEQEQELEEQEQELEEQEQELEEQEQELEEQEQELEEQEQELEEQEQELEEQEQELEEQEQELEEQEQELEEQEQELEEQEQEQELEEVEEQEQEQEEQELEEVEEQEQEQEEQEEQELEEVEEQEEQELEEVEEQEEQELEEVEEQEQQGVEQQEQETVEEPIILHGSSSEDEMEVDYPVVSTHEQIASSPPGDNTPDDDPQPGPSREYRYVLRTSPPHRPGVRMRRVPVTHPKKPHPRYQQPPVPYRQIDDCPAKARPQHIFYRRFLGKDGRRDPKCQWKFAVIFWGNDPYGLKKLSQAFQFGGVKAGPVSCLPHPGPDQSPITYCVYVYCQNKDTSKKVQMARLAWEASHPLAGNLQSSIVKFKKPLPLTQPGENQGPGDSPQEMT
UniProt P06748: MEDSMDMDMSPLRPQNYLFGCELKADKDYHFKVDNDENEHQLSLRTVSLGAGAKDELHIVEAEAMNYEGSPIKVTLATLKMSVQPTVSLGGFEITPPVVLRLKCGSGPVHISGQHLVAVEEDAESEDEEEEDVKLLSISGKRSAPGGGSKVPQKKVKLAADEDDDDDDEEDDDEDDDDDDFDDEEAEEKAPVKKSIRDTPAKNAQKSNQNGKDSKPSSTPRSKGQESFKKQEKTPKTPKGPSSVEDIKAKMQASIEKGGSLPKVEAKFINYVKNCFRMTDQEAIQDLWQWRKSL

eGFP-tagged wild-type NPM (from UniProt P06748 1-294)
binding: binds

— paper PMC2841626
